The source of these data is paper PMC6548965.

Chains of the proteins cited; added tags and fusions are not shown. A line that says so, or that is headed by a name, gives the form on record, which may keep a tag or linker. Residues count along the entry.
UniProt P32004, 20-1257: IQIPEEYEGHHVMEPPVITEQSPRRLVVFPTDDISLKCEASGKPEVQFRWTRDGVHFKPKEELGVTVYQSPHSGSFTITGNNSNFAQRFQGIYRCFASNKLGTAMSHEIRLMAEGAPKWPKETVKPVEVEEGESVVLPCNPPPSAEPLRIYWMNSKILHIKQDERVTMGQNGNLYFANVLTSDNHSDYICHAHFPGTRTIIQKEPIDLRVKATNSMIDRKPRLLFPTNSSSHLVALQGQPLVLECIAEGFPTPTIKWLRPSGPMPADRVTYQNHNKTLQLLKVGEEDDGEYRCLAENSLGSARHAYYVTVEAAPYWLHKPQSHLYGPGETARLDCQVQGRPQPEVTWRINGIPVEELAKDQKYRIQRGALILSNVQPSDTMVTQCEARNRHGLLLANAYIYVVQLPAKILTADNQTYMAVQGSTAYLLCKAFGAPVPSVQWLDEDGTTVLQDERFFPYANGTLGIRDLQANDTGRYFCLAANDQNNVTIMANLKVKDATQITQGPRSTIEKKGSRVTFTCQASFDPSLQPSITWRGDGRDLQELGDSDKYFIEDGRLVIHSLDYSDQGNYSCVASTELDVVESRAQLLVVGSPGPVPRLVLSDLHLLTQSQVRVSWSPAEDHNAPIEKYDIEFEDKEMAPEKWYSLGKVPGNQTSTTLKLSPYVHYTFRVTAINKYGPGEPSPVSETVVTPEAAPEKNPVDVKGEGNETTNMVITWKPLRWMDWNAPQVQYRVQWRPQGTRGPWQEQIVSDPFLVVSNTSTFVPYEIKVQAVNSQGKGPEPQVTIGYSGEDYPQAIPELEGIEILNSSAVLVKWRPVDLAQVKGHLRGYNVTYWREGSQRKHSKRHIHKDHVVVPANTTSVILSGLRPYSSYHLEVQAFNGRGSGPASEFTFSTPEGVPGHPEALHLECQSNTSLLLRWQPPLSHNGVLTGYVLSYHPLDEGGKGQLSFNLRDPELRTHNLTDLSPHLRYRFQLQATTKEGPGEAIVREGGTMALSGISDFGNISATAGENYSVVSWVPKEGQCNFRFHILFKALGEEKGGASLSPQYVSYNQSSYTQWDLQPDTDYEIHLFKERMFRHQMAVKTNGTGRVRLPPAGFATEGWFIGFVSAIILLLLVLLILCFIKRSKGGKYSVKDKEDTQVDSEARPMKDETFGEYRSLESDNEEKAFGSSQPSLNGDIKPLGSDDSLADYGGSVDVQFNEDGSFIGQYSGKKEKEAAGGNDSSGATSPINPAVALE
AP heterodimer (IAP/PLAP) on LoVo cells (human), one chain, as listed by the source, chain 1 of 2: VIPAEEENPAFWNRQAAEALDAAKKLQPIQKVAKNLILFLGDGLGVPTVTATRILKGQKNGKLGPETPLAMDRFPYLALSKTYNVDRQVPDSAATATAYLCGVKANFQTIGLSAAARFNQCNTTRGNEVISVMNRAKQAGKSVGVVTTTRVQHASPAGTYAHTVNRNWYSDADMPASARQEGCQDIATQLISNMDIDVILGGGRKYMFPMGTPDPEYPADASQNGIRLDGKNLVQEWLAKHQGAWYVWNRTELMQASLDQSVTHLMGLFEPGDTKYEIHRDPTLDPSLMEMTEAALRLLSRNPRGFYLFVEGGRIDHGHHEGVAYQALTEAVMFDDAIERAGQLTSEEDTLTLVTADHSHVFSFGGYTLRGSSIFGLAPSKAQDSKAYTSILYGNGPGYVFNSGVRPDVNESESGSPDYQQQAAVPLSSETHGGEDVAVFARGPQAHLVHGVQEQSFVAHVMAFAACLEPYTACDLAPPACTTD
AP heterodimer (IAP/PLAP) on LoVo cells (human), one chain, as listed by the source, chain 2 of 2: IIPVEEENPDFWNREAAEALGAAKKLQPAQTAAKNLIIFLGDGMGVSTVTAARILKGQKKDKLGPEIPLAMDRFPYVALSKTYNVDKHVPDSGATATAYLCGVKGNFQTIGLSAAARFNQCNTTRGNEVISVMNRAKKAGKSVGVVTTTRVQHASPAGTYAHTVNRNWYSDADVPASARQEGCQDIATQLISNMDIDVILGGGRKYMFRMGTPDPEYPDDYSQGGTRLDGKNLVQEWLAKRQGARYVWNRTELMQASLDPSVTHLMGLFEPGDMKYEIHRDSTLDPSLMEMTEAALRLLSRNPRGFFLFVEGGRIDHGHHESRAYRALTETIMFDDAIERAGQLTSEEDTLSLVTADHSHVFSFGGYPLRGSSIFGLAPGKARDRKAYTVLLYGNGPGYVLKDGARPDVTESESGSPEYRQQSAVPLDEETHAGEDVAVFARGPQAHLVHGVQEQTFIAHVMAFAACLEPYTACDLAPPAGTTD

The exact form of at least one protein or probe is not confirmed. Where cells or extracts were used, other partners may take part. For part of these data: Negatives hold for the conditions tested. For part of these data: At least one verdict was read from the data and is not stated in words by the source.

Series [1] deals with AP heterodimer (IAP/PLAP) on LoVo cells (human). The experiment in a line: flow cytometry. The conditions noted are these: LoVo cells, PBS pH 7.4 (about 137 mM NaCl) with 5 mM MgCl2, 4.5 g/L glucose, 1 mg/mL BSA, 0.1 mg/mL herring sperm DNA, 30 min at 4 C, protein on the cell surface, label: FITC or AF647.
Series [2] has the same test system. Put plainly: pull-down, immunoblot. To be noted: PBS pH 7.4 (about 137 mM NaCl) with 5 mM MgCl2, 4.5 g/L glucose, 1 mg/mL BSA, 0.1 mg/mL herring sperm DNA, 30 min at 4 C, protein on the cell surface.
Series [3] concerns IAP (intestinal alkaline phosphatase) overexpressed on PC-3 cells + PLAP (placental alkaline phosphatase) overexpressed on PC-3 cells. Put plainly: flow cytometry. To be noted: PC-3 cotransfected with IAP + PLAP; PBS pH 7.4 (about 137 mM NaCl) with 5 mM MgCl2, 4.5 g/L glucose, 1 mg/mL BSA, 0.1 mg/mL herring sperm DNA; 30 min at 4 C; protein on the cell surface; label: FITC or AF647 (flow cytometry); folded or branched DNA.

The target of series [4] is L1CAM on SH-SY5Y cells (human) (UniProt P32004). The experiment in a line: flow cytometry. To be noted: SH-SY5Y cells, L1CAM high, L1CAM knockdown on LoVo did not affect BG2 binding; PBS pH 7.4 (about 137 mM NaCl) with 5 mM MgCl2, 4.5 g/L glucose, 1 mg/mL BSA, 0.1 mg/mL herring sperm DNA; 30 min at 4 C; protein on the cell surface; label: FITC or AF647 (flow cytometry); folded or branched DNA.

In the case of “CAAGGAATAGGGGTCGGTGTGGGTGGTGGCTTCCTTG [BG2m]”, the binding result in series [1] (folded or branched DNA) is on record as “no binding”.

As for “CAAGGAATAGGGGTCGGTGTGGGTGGTTATGATTGGCTTCCTTG [BG2-biotin]”, in series [2] (in situ crosslinked, IAP and PLAP both detected, label: biotin (or biotin-disulfide), folded or branched DNA), the binding result is recorded as “binds”.

On to “CAAGGAATAGGGGTCGGTGTGGGTGGTTATGATTGGCTTCCTTG [BG2]”, for which the binding result in series [3] is “binds”; in series [4] it was “no binding”.

In the case of “CAAGGAATATTTTTCTTTGTTTTTTTTTATGATTTTCTTCCTTG [BG2t]”, the binding result in series [1] (folded or branched DNA) is reported as “no binding”.

For TAGGGGTCGGTGTGGGTGGTTATGATT [BG2c2], the binding result in series [1] (single-stranded DNA) was “no binding”.

“TCAAGGAATAGGGGTCAGTGTGGGTGGTTATGATTGGCTTCCTTG [BG2a]”: in series [1] (folded or branched DNA), the binding result is “no binding”.

Consider TCGGTGTGGGTGGTTATGATTGGC [BG2c3], for which the binding result in series [1] (single-stranded DNA) is “no binding”.

Regarding “TGTCCGTGTTTTTGGTTTGCTGCGGTGGGCTCATGGAC [BC1]”, the binding result in series [2] (neither IAP nor PLAP pulled down, label: biotin, single-stranded DNA) is given as “no binding”.
